± gives the standard deviation. The entries are a selection whose mix differs from that of the whole data set. The uncertainty is large for many entries.
Key:
[1] = tested on: MILI (PIWIL2) piRISC loaded with piRNA #1 (26 nt); experiment: pre-steady-state target cleavage rate (min^-1); higher = faster piRNA-guided slicing of the target; settings: guide: piRNA #1 5'p-UGAGGUAGUAGGUUGUAUAGUAUCCA; auxiliary factor: 500 nM mouse GTSF1
How it was run: (§1)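 Cleave-'n-Seq used a transcribed, DNA-blocked target RNA library at 0.1 nM and active affinity-purified piRISC with one synthetic guide at 1 nM, with or without 500 nM GTSF1 partner protein, in HEPES–potassium acetate buffer at 33 °C for 0–8 or 0–960 min. Uncleaved targets were sequenced and normalised to depth and to weakly complementary targets, and three trials were pooled with k3 capped at 0.0001 min^-1. The pre-steady-state cleavage rate was estimated by a burst-and-steady-state fit.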

[2] = tested on: MIWI (PIWIL1) piRISC loaded with piRNA #1 (30 nt); experiment: as above; settings: guide: piRNA #1 5'p-UGAGGUAGUAGGUUGUAUAGUAUCCAGAGG; auxiliary factor: 500 nM mouse GTSF1
How it was run: as §1

[3] = tested on: EfPiwi piRISC loaded with piRNA #1 (26 nt); experiment: pre-steady-state target cleavage rate (min^-1); guide: piRNA #1 5'p-UGAGGUAGUAGGUUGUAUAGUAUCCA; MIWI and MILI are mouse PIWI proteins and EfPiwi is from a freshwater sponge; tags in brackets are library labels; higher = faster piRNA-guided slicing of the target; settings: auxiliary factor: 500 nM Ephydatia muelleri Gtsf1
How it was run: as §1

Sequence	pre-steady-state target cleavage rate [1]	pre-steady-state target cleavage rate [2]	pre-steady-state target cleavage rate [3]
GGAGACCUAUGAUAUCAUCCUACUACCUGA	0.000739 ± 0.0048	0.000192 ± 0.01	0.000219 ± 0.01
GGAGACCUAUGAUAACAUCGUACUACCUCA	0.000905 ± 0.0053	0.000259 ± 0.0079	0.00134 ± 0.008
GGAGACCUAUGAUAUGUUCCUACUACGUCA	0.000235 ± 0.0088	0.000297 ± 0.009	0.000385 ± 0.0064
GGAGACCUUACUAUACAAACCUACUACCUCA	0.00111 ± 0.0058	0.000196 ± 0.013	0.0103 ± 0.0047
GGAGACCUAUGAUAUGUUGUUACUACCUCA	0.000288 ± 0.016	0.0013 ± 0.0041	0.00201 ± 0.0045
GGAGACCUAUGAUAUGUUGCUAGUACGUCA	0.000508 ± 0.015	0.000729 ± 0.008	0.000982 ± 0.0065
GGAGACCUAUGAUUACAACCUACAACCUGA	0.00182 ± 0.0039	0.000184 ± 0.01	0.000849 ± 0.0082
GGAGACCUAUGAUAUGAUGGUACUACCUCA	0.000521 ± 0.011	0.00122 ± 0.0043	0.000939 ± 0.0028
GGAGACCUAUGAUUACUACCUACUACCUGA	0.00141 ± 0.0045	0.000226 ± 0.0078	0.000263 ± 0.0077
GGAGAGGAUACUAUACAACCUACUACCUUA	0.19 ± 0.018	1.28 ± 0.066	0.204 ± 0.073
GGAGACGAUACUAUACAACGAUGAUGGAGA [g12:g24:cont:t1A]	0.000328 ± 0.015	0.00019 ± 0.022	0.000974 ± 0.0056
GGAGACCUAUGAUAACUACCUACUACGUCA	0.000761 ± 0.0078	0.000799 ± 0.0067	0.000378 ± 0.0076
GGAGACCUAUGAAUACAACCUACAACGUCA	0.00132 ± 0.0048	0.000209 ± 0.01	0.000222 ± 0.015
GGAGACCUAUGAUAACAACCUACUACGUCA	0.00125 ± 0.0031	0.00139 ± 0.0028	0.000702 ± 0.0066
GGAGACCUAUGAUAUCAACCUAGCUACCUCA	0.00339 ± 0.0024	0.00046 ± 0.006	0.00027 ± 0.015
GGAGACCUAUGAUAUGUUGGUUCUACCACA	0.000584 ± 0.011	0.00122 ± 0.0058	0.000713 ± 0.0071
GGAGACCUAUGUAUUCAACCUAGUACCUCA	0.00409 ± 0.0042	0.00113 ± 0.0053	0.000349 ± 0.0067
GGAGACCUAUGAUAACAACCUACUUCCACA	0.00111 ± 0.0057	0.000174 ± 0.01	0.000141 ± 0.023
GGAGACCUAUGAUAUCAACCCUACUACCUCA	0.000139 ± 0.016	0.000104 ± 0.019	0.000482 ± 0.009
GGAGACGAUACUAUACAACCUACUUGGAGA [g7:g24:cont:t1A]	0.00154 ± 0.005	0.00268 ± 0.005	0.00429 ± 0.0022
GGAGACCUAUGAUUACAUACCUACUACCUCA	0.000551 ± 0.0094	0.000146 ± 0.019	0.000811 ± 0.0071
GGAGACCUAUGUAUACAACCCUACUACCUCA	0.00107 ± 0.0068	0.000194 ± 0.018	0.000702 ± 0.0094
GGAGACCUAUGAAAACAACCUAGUACCUCA	0.00164 ± 0.0043	0.000733 ± 0.0051	0.000844 ± 0.0067
GGAGACCUAUGUAUACUACCAACUACCUCA	0.00234 ± 0.0026	0.000142 ± 0.012	0.000247 ± 0.015
GGAGACCUAUGUAUACAUGGUACUACCUCA	0.000997 ± 0.0049	0.00121 ± 0.0044	0.000488 ± 0.0038

3 entries picked at random from those above, as already listed:
Sequence	pre-steady-state target cleavage rate [1]	pre-steady-state target cleavage rate [2]	pre-steady-state target cleavage rate [3]
GGAGACCUAUGAUAACAUCGUACUACCUCA	0.000905 ± 0.0053	0.000259 ± 0.0079	0.00134 ± 0.008
GGAGACCUAUGUAUACUACCAACUACCUCA	0.00234 ± 0.0026	0.000142 ± 0.012	0.000247 ± 0.015
GGAGACCUAUGAUAACAACCUACUUCCACA	0.00111 ± 0.0057	0.000174 ± 0.01	0.000141 ± 0.023

The list continues:

Sequence	pre-steady-state target cleavage rate [1]	pre-steady-state target cleavage rate [2]	pre-steady-state target cleavage rate [3]
GGAGUGGAUACUAUACAACCUACUCCUCA	0.00253 ± 0.0026	0.00158 ± 0.0045	0.00475 ± 0.0027
GGAGACCUAUGAUUUCAAGCUACUACCUCA	0.00713 ± 0.0026	0.000918 ± 0.0052	0.000549 ± 0.0041
GGAGACCUAUGAUAUCAAGCUUCUACCUCA	0.00143 ± 0.0048	0.000239 ± 0.01	0.000178 ± 0.018
GGAGACCUAUGAUAUGUUGCUACUACCUCCA	< 0.0001	0.00075 ± 0.0065	0.000831 ± 0.0075
GGAGACCUAUGAAUACAACCUACUACCAGA	0.00225 ± 0.003	0.000199 ± 0.012	0.000641 ± 0.0078
GGAGACCUAAGUAUACUACCUACUACCUCA	0.0377 ± 0.0069	0.00246 ± 0.0029	0.00191 ± 0.0029
GGAGACCUAUGAUAUGUUGGUAGCUACCUCA	0.000281 ± 0.019	0.000431 ± 0.0073	0.000356 ± 0.015
GGAGACCUAUCUAUACAACCUUGAUGGAGA [g10:g20:cont:t1A]	0.000568 ± 0.0095	0.000913 ± 0.0082	0.00115 ± 0.0054
GGAGACCUAUGAUAACAUCCUACUACGUCA	0.00102 ± 0.0067	0.00145 ± 0.0042	0.000467 ± 0.0052
GGAGACCUAUGAUAUGUAGCUACUACCUCA	0.000625 ± 0.0061	0.000715 ± 0.0068	0.00115 ± 0.0035
GGAGACCUAUGUAUUGUACCUACUACCUCA	0.000225 ± 0.011	0.000151 ± 0.013	0.00155 ± 0.0056
GGAGACCUAUGAUAACAUCCUUCUACCUCA	0.00239 ± 0.0034	0.000309 ± 0.0068	0.000378 ± 0.0087
GGAGACCUAACUAAACAACCUACUUCCUCA	0.0346 ± 0.013	0.00339 ± 0.0042	0.00153 ± 0.0054
GGAGACCUAUGAUAACAACAUACUACCUCA	0.00202 ± 0.0033	0.00111 ± 0.0049	0.000744 ± 0.0046
GGAGACCUAUGAUAUGUUGGUACAACGUCA	0.000663 ± 0.0088	0.000656 ± 0.0064	0.00015 ± 0.011
GGAGACCUAUGAUUACAACCUACAACCACA	0.00296 ± 0.0038	0.000241 ± 0.0091	0.000515 ± 0.019
GGAGACCUAUGAAAACAACCUACUACCUGA	0.00141 ± 0.0046	0.000925 ± 0.0053	0.00104 ± 0.0058
GGAGACCUAUGAUAACAACCUUGUACCUCA	0.00102 ± 0.0063	0.000117 ± 0.018	0.000127 ± 0.015
GGAGACCUAUGAUAACAUCCUAGUACCUCA	0.000897 ± 0.0066	0.000139 ± 0.015	0.000252 ± 0.0094
GGAGACCUAUGAAUACAACGUUCUACCUCA	0.00201 ± 0.0033	0.000222 ± 0.016	0.00027 ± 0.012
GGAGACCUAUGAUAUGUUGCUAUACCUCA	0.000285 ± 0.023	0.000392 ± 0.016	0.000558 ± 0.007
GGAGACCUAUGAUAUGUUGCUUACUACCUCA	0.000888 ± 0.0068	0.00174 ± 0.0037	0.00187 ± 0.0029
GGAGACCUAUGAUUACAACCAACUACGUCA	0.00203 ± 0.0036	0.000364 ± 0.0066	0.00152 ± 0.0061
GGAGACCUAACUAUACAUCCAACUACCUCA	0.00526 ± 0.0061	0.00429 ± 0.0053	0.00275 ± 0.0054
GGAGACCUAUGAUAACAACCUACUACUUCA	0.00299 ± 0.0028	0.00172 ± 0.0057	0.000788 ± 0.0059

— the supplement of paper PMC10338343
